Results are given in words; binding and its absence hold for the method and conditions named. In cells and extracts the contact can be indirect. Some binding calls cover weakened binding; strength is not graded here.
Key:
[1] = biological target: TRPC5 (construct of the co-IP in Supplementary Fig. S1) (UniProt Q9QX29); assay: co-IP; co-immunoprecipitation of coexpressed TRPC channels (Supplementary Fig. S1); lysis buffer 0.5% Triton X-100, 50 mM Tris-Cl, 150 mM NaCl, 1 mM EDTA, pH 7.5; tags and direction not shown
[2] = biological target: TRPC4β (construct of the co-IP in Supplementary Fig. S1) (UniProt Q9QUQ5); assay: as above
[3] = biological target: TRPC5, CFP- or YFP-tagged (UniProt Q9QX29); assay: FRET or BRET; three-cube FRET efficiency at the plasma membrane of living HEK293 cells cotransfected with CFP- and YFP-tagged channels; CFP/YFP ratio 0.5 to 2.0
[4] = biological target: TRPC4β, CFP- or YFP-tagged (UniProt Q9QUQ5); assay: as above
[5] = biological target: TRPC4β-Flag (UniProt Q9QUQ5); assay: co-IP; lysates of HEK293 cells expressing TRPC1 with TRPC4β-Flag or TRPC5-Flag and YFP-tagged Gαq (WT or Q209L); immunoprecipitated by a GFP antibody or a Flag antibody, blotted with the other
[6] = biological target: TRPC5-Flag (UniProt Q9QX29); assay: as above
[7] = biological target: TRPC1α, CFP- or YFP-tagged (UniProt P48995); assay: FRET or BRET; three-cube FRET efficiency at the plasma membrane of living HEK293 cells cotransfected with CFP- and YFP-tagged channels; CFP/YFP ratio 0.5 to 2.0

By UniProt entry, the sequences of proteins in these tests, tags left out. Where a name states a change or a piece, a line headed by the entry shows the natural chain unless it says otherwise. Chains listed by the source or under a name are the forms on record and can include a tag or linker.
UniProt Q9QX29: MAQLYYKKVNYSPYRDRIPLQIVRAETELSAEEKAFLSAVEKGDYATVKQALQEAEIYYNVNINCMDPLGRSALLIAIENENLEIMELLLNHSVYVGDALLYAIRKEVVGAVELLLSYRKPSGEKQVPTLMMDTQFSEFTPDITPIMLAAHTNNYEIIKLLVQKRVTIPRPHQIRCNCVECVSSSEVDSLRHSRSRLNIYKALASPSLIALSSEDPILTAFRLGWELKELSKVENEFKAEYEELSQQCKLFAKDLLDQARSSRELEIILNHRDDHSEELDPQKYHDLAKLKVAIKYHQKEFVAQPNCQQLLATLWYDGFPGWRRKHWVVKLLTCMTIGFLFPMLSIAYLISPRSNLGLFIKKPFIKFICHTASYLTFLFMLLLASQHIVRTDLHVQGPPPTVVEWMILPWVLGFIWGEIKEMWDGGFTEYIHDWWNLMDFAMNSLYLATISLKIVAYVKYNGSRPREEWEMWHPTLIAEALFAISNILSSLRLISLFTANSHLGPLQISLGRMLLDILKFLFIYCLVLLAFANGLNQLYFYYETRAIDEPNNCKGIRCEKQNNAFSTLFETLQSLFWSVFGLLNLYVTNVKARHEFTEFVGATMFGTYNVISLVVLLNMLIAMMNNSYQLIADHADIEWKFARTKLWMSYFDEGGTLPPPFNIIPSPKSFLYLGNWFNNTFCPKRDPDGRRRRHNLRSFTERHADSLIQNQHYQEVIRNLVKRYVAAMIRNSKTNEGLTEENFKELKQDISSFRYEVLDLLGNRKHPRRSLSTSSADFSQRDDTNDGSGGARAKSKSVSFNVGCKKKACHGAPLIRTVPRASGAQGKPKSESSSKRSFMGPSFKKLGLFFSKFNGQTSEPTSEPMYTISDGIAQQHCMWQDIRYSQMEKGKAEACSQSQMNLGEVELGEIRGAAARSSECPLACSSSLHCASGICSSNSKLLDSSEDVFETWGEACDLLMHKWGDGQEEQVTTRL
TRPC4β, CFP- or YFP-tagged (Q9QUQ5-2, form named): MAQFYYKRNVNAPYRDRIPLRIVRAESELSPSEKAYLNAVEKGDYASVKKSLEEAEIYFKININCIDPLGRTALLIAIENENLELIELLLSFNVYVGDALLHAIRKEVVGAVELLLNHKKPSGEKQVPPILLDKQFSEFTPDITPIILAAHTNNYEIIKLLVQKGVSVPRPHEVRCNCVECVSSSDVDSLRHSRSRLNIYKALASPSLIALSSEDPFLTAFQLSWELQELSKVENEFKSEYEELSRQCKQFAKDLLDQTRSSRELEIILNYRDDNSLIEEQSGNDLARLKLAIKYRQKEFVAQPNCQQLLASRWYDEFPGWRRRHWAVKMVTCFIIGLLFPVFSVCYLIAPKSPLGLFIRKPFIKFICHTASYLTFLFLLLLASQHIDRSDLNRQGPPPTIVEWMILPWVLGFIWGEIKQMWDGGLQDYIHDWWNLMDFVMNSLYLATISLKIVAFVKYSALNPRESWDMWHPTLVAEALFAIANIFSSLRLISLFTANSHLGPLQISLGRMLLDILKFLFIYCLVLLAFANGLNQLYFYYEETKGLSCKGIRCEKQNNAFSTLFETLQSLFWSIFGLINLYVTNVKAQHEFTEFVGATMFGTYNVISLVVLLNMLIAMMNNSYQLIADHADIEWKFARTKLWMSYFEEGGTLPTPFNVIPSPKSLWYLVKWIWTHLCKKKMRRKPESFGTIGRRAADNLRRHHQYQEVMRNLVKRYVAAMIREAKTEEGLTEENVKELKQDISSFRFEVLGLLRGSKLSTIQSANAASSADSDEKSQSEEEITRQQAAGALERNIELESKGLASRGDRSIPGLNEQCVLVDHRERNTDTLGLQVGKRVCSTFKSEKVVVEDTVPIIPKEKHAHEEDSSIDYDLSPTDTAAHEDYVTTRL
UniProt P48995: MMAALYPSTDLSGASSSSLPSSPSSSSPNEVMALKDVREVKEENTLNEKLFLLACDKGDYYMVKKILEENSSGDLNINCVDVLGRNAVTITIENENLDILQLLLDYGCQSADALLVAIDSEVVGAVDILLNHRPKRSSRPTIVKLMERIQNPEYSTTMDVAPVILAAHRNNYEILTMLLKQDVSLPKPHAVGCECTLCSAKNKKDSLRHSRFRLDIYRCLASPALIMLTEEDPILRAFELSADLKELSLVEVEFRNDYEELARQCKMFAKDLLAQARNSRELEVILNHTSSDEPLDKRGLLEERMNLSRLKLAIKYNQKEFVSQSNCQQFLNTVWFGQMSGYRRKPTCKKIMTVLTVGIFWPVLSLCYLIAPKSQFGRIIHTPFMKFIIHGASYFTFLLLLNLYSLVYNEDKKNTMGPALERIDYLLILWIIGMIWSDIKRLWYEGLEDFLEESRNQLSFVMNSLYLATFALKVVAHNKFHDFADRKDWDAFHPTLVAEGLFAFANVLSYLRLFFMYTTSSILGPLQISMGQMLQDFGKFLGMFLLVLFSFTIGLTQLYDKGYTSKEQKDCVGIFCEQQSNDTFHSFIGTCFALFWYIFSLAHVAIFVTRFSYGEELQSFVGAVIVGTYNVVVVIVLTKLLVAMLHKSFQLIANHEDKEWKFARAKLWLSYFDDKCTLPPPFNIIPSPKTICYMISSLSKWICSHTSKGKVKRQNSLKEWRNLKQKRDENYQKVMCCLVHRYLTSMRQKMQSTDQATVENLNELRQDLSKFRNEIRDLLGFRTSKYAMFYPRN
UniProt P50148: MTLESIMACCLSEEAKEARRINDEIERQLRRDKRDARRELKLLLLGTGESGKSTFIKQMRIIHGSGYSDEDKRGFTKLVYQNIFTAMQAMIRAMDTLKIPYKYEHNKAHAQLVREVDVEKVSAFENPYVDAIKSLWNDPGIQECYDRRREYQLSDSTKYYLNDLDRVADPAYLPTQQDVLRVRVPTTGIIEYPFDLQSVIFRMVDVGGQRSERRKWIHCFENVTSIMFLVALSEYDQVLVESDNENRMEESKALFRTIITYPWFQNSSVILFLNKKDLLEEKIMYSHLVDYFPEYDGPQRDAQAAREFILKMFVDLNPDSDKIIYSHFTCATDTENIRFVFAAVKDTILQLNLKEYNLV
UniProt P20309: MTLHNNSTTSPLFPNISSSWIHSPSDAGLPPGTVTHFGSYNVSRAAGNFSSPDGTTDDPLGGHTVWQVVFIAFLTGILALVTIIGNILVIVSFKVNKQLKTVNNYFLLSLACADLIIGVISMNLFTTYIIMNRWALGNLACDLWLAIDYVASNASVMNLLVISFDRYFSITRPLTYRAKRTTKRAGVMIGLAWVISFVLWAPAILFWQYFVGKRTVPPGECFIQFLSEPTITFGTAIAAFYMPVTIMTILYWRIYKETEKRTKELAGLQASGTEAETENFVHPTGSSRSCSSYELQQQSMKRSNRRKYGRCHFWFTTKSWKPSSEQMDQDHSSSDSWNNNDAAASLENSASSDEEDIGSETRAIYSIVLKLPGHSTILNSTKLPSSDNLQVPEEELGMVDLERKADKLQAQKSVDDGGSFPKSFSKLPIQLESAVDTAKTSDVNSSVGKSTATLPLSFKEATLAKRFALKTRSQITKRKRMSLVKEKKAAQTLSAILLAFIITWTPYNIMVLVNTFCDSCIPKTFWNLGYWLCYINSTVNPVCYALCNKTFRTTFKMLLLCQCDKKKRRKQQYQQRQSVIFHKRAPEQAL

Row | binding [3] | binding [4] | Substance | further results
1 | – | – | TRPC1α (construct of the co-IP in Supplementary Fig. S1) (from UniProt P48995 1-793) | binding [1]: binds; binding [2]: binds
2 | binds | binds | TRPC1α, CFP- or YFP-tagged (from UniProt P48995 1-793) | –
3 | – | – | TRPC4β (construct of the co-IP in Supplementary Fig. S1) (from UniProt Q9QUQ5-2 1-890) | binding [1]: binds
4 | binds | binds | TRPC4β, CFP- or YFP-tagged (from UniProt Q9QUQ5-2 1-890) | –
5 | binds | – | TRPC5, CFP- or YFP-tagged (from UniProt Q9QX29 1-975) | –
6 | – | – | YFP-tagged Gαq (Q209L) (from UniProt P50148 1-359) | binding [5]: binds; binding [6]: binds
7 | no binding | no binding | YFP-tagged muscarinic receptor 3 (from UniProt P20309 1-590) | binding [7]: no binding
